The record followed here is PubChem BioAssay (NCATS).

Some of the results follow. Shown are side measurements of this screen, not its main read-out; they come without a call. Most of these compounds were active or inconclusive in the main read-out, so they are no random draw. Words in brackets tell the shape of the fitted curve; partial curves, single points and poor fits give uncertain potencies.

This assay can be described thus: qHTS Assay for Inhibitors of PDE-IV (AID 607). The settings on record: HEK293 ACTOne CNG channel cells, membrane potential fluorescence; measured here: parental cell counter-screen. Summed up: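 The readout is membrane depolarisation from a cAMP-sensing CNG channel, detected with a potential dye at ex 535/em 590. Cells were HEK293-derived (endogenous PDE-IV) at 1000 cells/well, titrated up to 22.9 uM final.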
Take `COc1cccc(-c2ccc3ncnc(NCc4ccccc4)c3c2)c1`: the AC50 is 12.6 µM [rising, single point].
The same measure for `CCCC[C@@H]1C[C@H]1C(NC(=O)c1ccccc1)c1ccc(Cl)cc1` (some centres not stated): 5.01 µM [rising, partial curve].
For the compound `COC(=O)N1CCC[C@@]2(CCN(C(c3ccccc3)c3ccccc3)C2)C1`, the concentration at half-maximal activity (AC50) was 0.0126 µM [rising, full curve, poor fit].
For the compound `COc1ccccc1-c1ccc2ncnc(NCc3ccccc3)c2c1`, the concentration at half-maximal activity (AC50) was 10 µM [rising, partial curve].
`Clc1ccc(CO[C@@H](Cn2ccnc2)c2ccc(Cl)cc2Cl)cc1`: the AC50 is 5.01 µM [rising, single point].
With `COc1ccc(NC(=O)N2CCCC3(CCN(C(=O)c4c(C)noc4C)CC3)C2)cc1`, the AC50 is 0.631 µM [rising, single point].
The same measure for `CCCC[C@@H]1C[C@H]1C(NC(=O)c1cccnc1)c1ccc(Cl)cc1` (some centres not stated): 15.8 µM [rising, single point]; for `C[C@@H](C(=O)O)c1ccc(C(=O)c2cccs2)cc1`: 2.51 µM [rising, full curve, poor fit]; for `COCC(=O)N1CCC2(CC1)CCN(c1ccncc1)CC2`: 0.00631 µM [falling, full curve, poor fit].
Next, `O=C(O)/C=C1\CCCc2ccccc2[C@H]1O`: 20 µM [rising, single point]; `Cc1cccc(CNc2nc(-c3c(C)noc3C)nc3ccccc23)c1`: 12.6 µM [rising, single point].
Next, `COc1ccccc1CNc1ncnc2ccc(-c3ccccc3OC)cc12`: 15.8 µM [rising, single point].

In general, AC50 refers to the midpoint of the concentration-response curve, whichever way the signal moves.
